Measured values published in publication PMC9975675.
Read-outs that look alike come from different tables or passages of the source. No constants are given. Whether binding was seen depends on the method and setting. In cells and extracts the contact can be indirect. Some entries that bind do so weakly or less than the wild type. One block for each molecule: values may come before it.

Chains of the proteins cited; added tags and fusions are not shown. Residues count along the entry.
UniProt P15941, residues 1098-1255: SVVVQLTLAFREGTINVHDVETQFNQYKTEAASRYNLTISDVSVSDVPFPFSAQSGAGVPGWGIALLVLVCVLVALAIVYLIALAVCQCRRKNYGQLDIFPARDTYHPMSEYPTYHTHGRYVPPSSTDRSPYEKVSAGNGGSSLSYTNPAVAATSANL
UniProt Q86U86: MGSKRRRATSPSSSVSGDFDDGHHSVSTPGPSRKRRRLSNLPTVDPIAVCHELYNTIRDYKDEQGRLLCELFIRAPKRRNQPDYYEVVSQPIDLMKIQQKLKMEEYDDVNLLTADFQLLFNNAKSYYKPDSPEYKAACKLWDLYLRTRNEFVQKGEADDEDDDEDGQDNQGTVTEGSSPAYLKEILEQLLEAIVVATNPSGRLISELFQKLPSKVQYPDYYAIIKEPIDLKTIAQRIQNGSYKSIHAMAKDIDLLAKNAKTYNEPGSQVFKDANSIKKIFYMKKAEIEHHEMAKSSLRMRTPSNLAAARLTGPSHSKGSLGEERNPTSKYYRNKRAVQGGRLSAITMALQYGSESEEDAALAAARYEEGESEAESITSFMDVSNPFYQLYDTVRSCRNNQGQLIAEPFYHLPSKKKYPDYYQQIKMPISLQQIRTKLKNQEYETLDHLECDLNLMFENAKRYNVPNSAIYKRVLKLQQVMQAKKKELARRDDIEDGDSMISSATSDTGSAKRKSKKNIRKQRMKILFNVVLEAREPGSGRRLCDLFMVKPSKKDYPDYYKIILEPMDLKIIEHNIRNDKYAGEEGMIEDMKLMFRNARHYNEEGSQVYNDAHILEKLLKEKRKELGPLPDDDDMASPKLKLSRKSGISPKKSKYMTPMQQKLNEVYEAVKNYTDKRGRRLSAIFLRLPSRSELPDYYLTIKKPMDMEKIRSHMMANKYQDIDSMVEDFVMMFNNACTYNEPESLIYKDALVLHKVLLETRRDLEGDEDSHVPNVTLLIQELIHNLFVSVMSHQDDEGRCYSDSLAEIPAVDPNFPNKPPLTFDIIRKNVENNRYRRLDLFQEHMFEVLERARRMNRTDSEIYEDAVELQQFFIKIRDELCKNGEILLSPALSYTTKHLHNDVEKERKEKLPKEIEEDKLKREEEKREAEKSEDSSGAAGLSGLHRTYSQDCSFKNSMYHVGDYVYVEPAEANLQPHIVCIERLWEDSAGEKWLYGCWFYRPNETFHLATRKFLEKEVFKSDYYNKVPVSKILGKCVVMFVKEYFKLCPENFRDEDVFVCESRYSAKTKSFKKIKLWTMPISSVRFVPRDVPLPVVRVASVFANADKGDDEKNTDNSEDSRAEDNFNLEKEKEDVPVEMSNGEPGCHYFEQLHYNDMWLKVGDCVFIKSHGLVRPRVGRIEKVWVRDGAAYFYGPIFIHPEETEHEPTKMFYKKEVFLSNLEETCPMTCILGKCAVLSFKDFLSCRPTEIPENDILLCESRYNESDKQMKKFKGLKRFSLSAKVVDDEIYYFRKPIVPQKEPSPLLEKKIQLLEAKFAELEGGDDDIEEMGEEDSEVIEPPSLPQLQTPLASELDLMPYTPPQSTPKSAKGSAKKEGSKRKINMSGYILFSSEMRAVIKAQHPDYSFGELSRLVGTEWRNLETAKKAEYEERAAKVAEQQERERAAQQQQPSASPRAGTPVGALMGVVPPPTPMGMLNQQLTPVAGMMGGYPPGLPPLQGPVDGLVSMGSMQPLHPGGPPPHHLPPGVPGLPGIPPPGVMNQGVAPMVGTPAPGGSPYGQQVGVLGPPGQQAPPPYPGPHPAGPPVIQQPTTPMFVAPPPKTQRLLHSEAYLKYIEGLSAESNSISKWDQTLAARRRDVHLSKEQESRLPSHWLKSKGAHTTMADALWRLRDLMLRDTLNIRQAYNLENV

Key:
[1] = biological target: MUC1 transmembrane C-terminal subunit (MUC1-C) (human (endogenous in BT-549)) (UniProt P15941); assay: co-IP; nuclear lysates incubated with anti-MUC1-C (MA5-11202), precipitated with Dynabeads Protein G; control IgG; immunoblot
[2] = biological target: MUC1 transmembrane C-terminal subunit (MUC1-C) (human (endogenous in BT-549)) (UniProt P15941); assay: as above; remark: listed apart in the source

- binding [1]: binds
Molecule: polybromo-1 (PBRM1) (from UniProt Q86U86 1-1689)

- binding [2]: binds
B1: IRF1 (endogenous) (protein, UniProt P10914 1-325)
chain: MPITRMRMRPWLEMQINSNQIPGLIWINKEEMIFQIPWKHAAKHGWDINKDACLFRSWAIHTGRYKAGEKEPDPKTWKANFRCAMNSLPDIEEVKDQSRNKGSSAVRVYRMLPPLTKNQRKERKSKSSRDAKSKAKRKSCGDSSPDTFSDGLSSSTLPDDHSSYTVPGYMQDLEVEQALTPALSPCAVSSTLPDWHIPVEVVPDSTSDLYNFQVSPMPSTSEATTDEDEEGKLPEDIMKLLEQSEWQPTNVDGKGYLLNEPGVQPTSVYGDFSCKEEPEIDSPGGDIGLSLQRVFTDLKNMDATWLDSLLTPVRLPSIQAIPCAP
